Values quoted from earlier work as cited in patent US8318725B2, “Aryl indolyl sulfonamide compounds and their use as 5-HT6 ligands” (Suven Life Sciences Limited, priority 2008, dated 2012).
For at least one compound, name, drawing or mass did not settle the structure.

System: 5-HT6 receptor
Settings: literature statement; cited from earlier work

In the case of `CN1CCN(C2=Nc3cc(Cl)ccc3Nc3ccccc32)CC1` [clozapine], the “Affinity for the 5-HT6 receptor” value is given as “high affinity”.
